According to paper PMC10746275:

Molecular target: T1, tetraspanin CD82 (human (endogenous in C91-PL)) (UniProt P27701)
T1 sequence (chain, N-glycosylated in its large extracellular loop (sites not printed)): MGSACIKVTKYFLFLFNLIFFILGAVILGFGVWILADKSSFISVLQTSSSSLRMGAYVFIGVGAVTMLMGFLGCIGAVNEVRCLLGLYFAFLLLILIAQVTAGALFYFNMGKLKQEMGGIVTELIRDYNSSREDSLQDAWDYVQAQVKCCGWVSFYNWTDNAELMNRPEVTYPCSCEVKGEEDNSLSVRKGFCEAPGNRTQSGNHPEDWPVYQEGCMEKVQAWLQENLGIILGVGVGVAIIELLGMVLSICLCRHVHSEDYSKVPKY
Test: co-IP; lysate of chronically infected T-cells (C91-PL; C8166 also harvested) in 50 mM Tris-HCl pH 7.4, 150 mM NaCl, 1 mM EDTA, 1 mM CaCl2, 1 mM MgCl2, 1% CHAPSO; 500 ug total protein incubated overnight at 4°C with or without 1 ug anti-CD9, anti-CD81 or anti-CD82 antibody; protein A magnetic beads 4 h at 4°C; five washes; western blot

In the case of HTLV-1 Gag, the binding is reported as “binds”.

These are yes or no findings as the source states them, for the method shown. Binding seen in cells or lysates may run through a third protein. A result given as binding can be weak or reduced; the word gives no strength.
